These results are taken from PMC5717335.

By UniProt entry, the sequences of proteins in these tests, tags left out.
UniProt Q96IK1: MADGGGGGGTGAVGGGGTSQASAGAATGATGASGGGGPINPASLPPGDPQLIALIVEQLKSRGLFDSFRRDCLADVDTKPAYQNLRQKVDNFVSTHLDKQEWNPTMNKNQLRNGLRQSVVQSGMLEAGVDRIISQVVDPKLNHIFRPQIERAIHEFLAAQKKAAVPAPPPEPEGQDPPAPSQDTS
UniProt Q9UBL3: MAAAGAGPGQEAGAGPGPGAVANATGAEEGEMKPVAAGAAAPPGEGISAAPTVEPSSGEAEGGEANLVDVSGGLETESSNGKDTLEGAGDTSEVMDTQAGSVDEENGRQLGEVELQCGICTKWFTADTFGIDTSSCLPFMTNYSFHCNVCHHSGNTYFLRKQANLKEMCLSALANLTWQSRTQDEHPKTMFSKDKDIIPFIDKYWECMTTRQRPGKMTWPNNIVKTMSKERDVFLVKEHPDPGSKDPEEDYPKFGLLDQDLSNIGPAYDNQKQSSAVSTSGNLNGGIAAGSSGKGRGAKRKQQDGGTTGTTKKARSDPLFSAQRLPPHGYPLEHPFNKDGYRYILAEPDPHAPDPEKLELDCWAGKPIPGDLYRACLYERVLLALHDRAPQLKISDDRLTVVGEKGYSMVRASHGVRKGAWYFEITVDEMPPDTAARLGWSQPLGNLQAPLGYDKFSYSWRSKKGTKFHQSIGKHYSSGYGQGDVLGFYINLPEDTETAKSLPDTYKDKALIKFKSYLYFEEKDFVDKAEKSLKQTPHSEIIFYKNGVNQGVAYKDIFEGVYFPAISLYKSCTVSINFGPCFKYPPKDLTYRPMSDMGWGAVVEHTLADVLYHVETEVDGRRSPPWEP

These are yes or no findings as the source states them, for the method shown. In cells and extracts the contact can be indirect. Here binding means that the protein was enriched with, or labelled near, the bait; the list need not be complete.

This experiment deals with Bod1-GFP (human) (UniProt Q96IK1). Briefly: affinity purification with mass spectrometry; GFP Binder (Chromotek) affinity purification of Bod1-GFP from lysates of HeLa cells arrested in mitosis with STLC, 90 min at 4°C; label-free quantitative MS against cells expressing GFP alone; n = 4 biological replicates.

On to ASH2 L (from UniProt Q9UBL3 1-628), for which the binding entry was “binds”.
